In PMC4997316, “A ruthenium polypyridyl intercalator stalls DNA replication forks, radiosensitizes human cancer cells and is enhanced by Chk1 inhibition” (Scientific Reports, 2016):

Experiment: octanol/water partition coefficient (Log P)

O=C1c2c(O)ccc(O)c2C(=O)c2c(NCCNCCO)ccc(NCCNCCO)c21 [MX, mitoxantrone] gave a logP of 0.36.
